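Malaria parasite (P. falciparum) lines kept in red blood cells; parasite DNA is measured by SYBR Green fluorescence after lysis, 72 h after compound addition.
Each compound was titrated across a series from about 0.000037 to 29 µM.
The number is the fitted AC50, the concentration giving a half-maximal change in signal; a lower value means higher potency, whether the curve shows a decrease or an increase.
Calls follow the curve class and fit quality: every row here is inconclusive, covering signal-raising curves and weak, poorly fitted, partial or highest-dose-only inhibition curves.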

Values are in µM.
Every entry below has the call inconclusive.
Only part of the assay is shown, chiefly results filed as inconclusive.
A potency from a partial, single-point or poor curve is only a rough figure.
Some entries filed as inconclusive have a full curve.
The first word of each remark tells which way the curve ran; it can be opposite to the aim of the assay.

compound	setting	fitted potency (µM)	curve
CN1C[C@@H]2C[C@H]1CN2c1cc2c(cc1F)c(=O)c(C(=O)O)cn2C1CC1	CP329	2.393	inhibitor, full curve
CN1C[C@@H]2C[C@H]1CN2c1cc2c(cc1F)c(=O)c(C(=O)O)cn2C1CC1	CP325	0.9528	inhibitor, full curve
CN1C[C@@H]2C[C@H]1CN2c1cc2c(cc1F)c(=O)c(C(=O)O)cn2C1CC1	SC27B	2.239	inhibitor, full curve, poor fit
CN1C[C@@H]2C[C@H]1CN2c1cc2c(cc1F)c(=O)c(C(=O)O)cn2C1CC1	GB4	1.694	inhibitor, full curve
CN1C[C@@H]2C[C@H]1CN2c1cc2c(cc1F)c(=O)c(C(=O)O)cn2C1CC1	CP260	1.995	inhibitor, full curve
CN1C[C@@H]2C[C@H]1CN2c1cc2c(cc1F)c(=O)c(C(=O)O)cn2C1CC1	PC15	10	inhibitor, single point
CN1C[C@@H]2C[C@H]1CN2c1cc2c(cc1F)c(=O)c(C(=O)O)cn2C1CC1	DIV14	15.1	inhibitor, partial curve, poor fit
CN1C[C@@H]2C[C@H]1CN2c1cc2c(cc1F)c(=O)c(C(=O)O)cn2C1CC1	CP252	1.259	inhibitor, full curve
CN1C[C@@H]2C[C@H]1CN2c1cc2c(cc1F)c(=O)c(C(=O)O)cn2C1CC1	TAB109	0.5623	inhibitor, full curve
CN1C[C@@H]2C[C@H]1CN2c1cc2c(cc1F)c(=O)c(C(=O)O)cn2C1CC1	CP265	1	inhibitor, full curve
CN1C[C@@H]2C[C@H]1CN2c1cc2c(cc1F)c(=O)c(C(=O)O)cn2C1CC1	ECU	1.585	inhibitor, full curve, poor fit
CN1C[C@@H]2C[C@H]1CN2c1cc2c(cc1F)c(=O)c(C(=O)O)cn2C1CC1	CP315	4.776	inhibitor, partial curve
CN1C[C@@H]2C[C@H]1CN2c1cc2c(cc1F)c(=O)c(C(=O)O)cn2C1CC1	CP305	0.9528	inhibitor, full curve
CN1C[C@@H]2C[C@H]1CN2c1cc2c(cc1F)c(=O)c(C(=O)O)cn2C1CC1	DFO2036	1.585	inhibitor, full curve
CN1C[C@@H]2C[C@H]1CN2c1cc2c(cc1F)c(=O)c(C(=O)O)cn2C1CC1	PC26	2.393	inhibitor, partial curve
CN1C[C@@H]2C[C@H]1CN2c1cc2c(cc1F)c(=O)c(C(=O)O)cn2C1CC1	DIV30	2.133	inhibitor, full curve
CN1C[C@@H]2C[C@H]1CN2c1cc2c(cc1F)c(=O)c(C(=O)O)cn2C1CC1	CP256	1.413	inhibitor, full curve
CN1C[C@@H]2C[C@H]1CN2c1cc2c(cc1F)c(=O)c(C(=O)O)cn2C1CC1	CP262	1.51	inhibitor, partial curve
CN1C[C@@H]2C[C@H]1CN2c1cc2c(cc1F)c(=O)c(C(=O)O)cn2C1CC1	CP297	2.393	inhibitor, full curve, poor fit
CN1C[C@@H]2C[C@H]1CN2c1cc2c(cc1F)c(=O)c(C(=O)O)cn2C1CC1	CP286	1.259	inhibitor, full curve
CN1C[C@@H]2C[C@H]1CN2c1cc2c(cc1F)c(=O)c(C(=O)O)cn2C1CC1	TAB165	1.995	inhibitor, full curve, poor fit
CN1C[C@@H]2C[C@H]1CN2c1cc2c(cc1F)c(=O)c(C(=O)O)cn2C1CC1	CP266	2.393	inhibitor, partial curve
CN1C[C@@H]2C[C@H]1CN2c1cc2c(cc1F)c(=O)c(C(=O)O)cn2C1CC1	ICS	2.512	inhibitor, full curve
CN1C[C@@H]2C[C@H]1CN2c1cc2c(cc1F)c(=O)c(C(=O)O)cn2C1CC1	CP268	0.9528	inhibitor, full curve
CN1C[C@@H]2C[C@H]1CN2c1cc2c(cc1F)c(=O)c(C(=O)O)cn2C1CC1	P94_40	1	inhibitor, full curve, poor fit
CN1C[C@@H]2C[C@H]1CN2c1cc2c(cc1F)c(=O)c(C(=O)O)cn2C1CC1	CP269	1.694	inhibitor, full curve
CN1C[C@@H]2C[C@H]1CN2c1cc2c(cc1F)c(=O)c(C(=O)O)cn2C1CC1	N140	1.259	inhibitor, full curve
CN1C[C@@H]2C[C@H]1CN2c1cc2c(cc1F)c(=O)c(C(=O)O)cn2C1CC1	CP291	2.393	inhibitor, partial curve
CC(=O)OC1C[C@H](O[C@@H]2C(O)C[C@H](O[C@@H]3C(O)C[C@@H](OC4CC[C@]5(C)C(CCC6C5CC(O)[C@@]5(C)C(C7=CC(=O)OC7)CC[C@@]65O)C4)OC3C)OC2C)O[C@H](C)[C@H]1O[C@H]1OC(CO)C(O)C(O)C1O (stereo not given in full)	CP194	3.013	inhibitor, partial curve, poor fit
CC(=O)OC1C[C@H](O[C@@H]2C(O)C[C@H](O[C@@H]3C(O)C[C@@H](OC4CC[C@]5(C)C(CCC6C5CC(O)[C@@]5(C)C(C7=CC(=O)OC7)CC[C@@]65O)C4)OC3C)OC2C)O[C@H](C)[C@H]1O[C@H]1OC(CO)C(O)C(O)C1O (stereo not given in full)	3D7	5.623	inhibitor, partial curve, poor fit
CC(=O)OC1C[C@H](O[C@@H]2C(O)C[C@H](O[C@@H]3C(O)C[C@@H](OC4CC[C@]5(C)C(CCC6C5CC(O)[C@@]5(C)C(C7=CC(=O)OC7)CC[C@@]65O)C4)OC3C)OC2C)O[C@H](C)[C@H]1O[C@H]1OC(CO)C(O)C(O)C1O (stereo not given in full)	ECU	17.78	inhibitor, single point
CC(=O)OC1C[C@H](O[C@@H]2C(O)C[C@H](O[C@@H]3C(O)C[C@@H](OC4CC[C@]5(C)C(CCC6C5CC(O)[C@@]5(C)C(C7=CC(=O)OC7)CC[C@@]65O)C4)OC3C)OC2C)O[C@H](C)[C@H]1O[C@H]1OC(CO)C(O)C(O)C1O (stereo not given in full)	CP266	19.01	activator, single point
CC(=O)OC1C[C@H](O[C@@H]2C(O)C[C@H](O[C@@H]3C(O)C[C@@H](OC4CC[C@]5(C)C(CCC6C5CC(O)[C@@]5(C)C(C7=CC(=O)OC7)CC[C@@]65O)C4)OC3C)OC2C)O[C@H](C)[C@H]1O[C@H]1OC(CO)C(O)C(O)C1O (stereo not given in full)	CP237	14.13	inhibitor, partial curve, poor fit
CC(=O)OC1C[C@H](O[C@@H]2C(O)C[C@H](O[C@@H]3C(O)C[C@@H](OC4CC[C@]5(C)C(CCC6C5CC(O)[C@@]5(C)C(C7=CC(=O)OC7)CC[C@@]65O)C4)OC3C)OC2C)O[C@H](C)[C@H]1O[C@H]1OC(CO)C(O)C(O)C1O (stereo not given in full)	PC49	1.995	inhibitor, full curve, poor fit
CC(=O)OC1C[C@H](O[C@@H]2C(O)C[C@H](O[C@@H]3C(O)C[C@@H](OC4CC[C@]5(C)C(CCC6C5CC(O)[C@@]5(C)C(C7=CC(=O)OC7)CC[C@@]65O)C4)OC3C)OC2C)O[C@H](C)[C@H]1O[C@H]1OC(CO)C(O)C(O)C1O (stereo not given in full)	CP260	17.78	inhibitor, single point
CC(=O)OC1C[C@H](O[C@@H]2C(O)C[C@H](O[C@@H]3C(O)C[C@@H](OC4CC[C@]5(C)C(CCC6C5CC(O)[C@@]5(C)C(C7=CC(=O)OC7)CC[C@@]65O)C4)OC3C)OC2C)O[C@H](C)[C@H]1O[C@H]1OC(CO)C(O)C(O)C1O (stereo not given in full)	CP191	11.22	inhibitor, partial curve

Once more, the final 3:

compound,setting,fitted potency (µM),curve
CC(=O)OC1C[C@H](O[C@@H]2C(O)C[C@H](O[C@@H]3C(O)C[C@@H](OC4CC[C@]5(C)C(CCC6C5CC(O)[C@@]5(C)C(C7=CC(=O)OC7)CC[C@@]65O)C4)OC3C)OC2C)O[C@H](C)[C@H]1O[C@H]1OC(CO)C(O)C(O)C1O (stereo not given in full),PC49,1.995,"inhibitor, full curve, poor fit"
CC(=O)OC1C[C@H](O[C@@H]2C(O)C[C@H](O[C@@H]3C(O)C[C@@H](OC4CC[C@]5(C)C(CCC6C5CC(O)[C@@]5(C)C(C7=CC(=O)OC7)CC[C@@]65O)C4)OC3C)OC2C)O[C@H](C)[C@H]1O[C@H]1OC(CO)C(O)C(O)C1O (stereo not given in full),CP260,17.78,"inhibitor, single point"
CC(=O)OC1C[C@H](O[C@@H]2C(O)C[C@H](O[C@@H]3C(O)C[C@@H](OC4CC[C@]5(C)C(CCC6C5CC(O)[C@@]5(C)C(C7=CC(=O)OC7)CC[C@@]65O)C4)OC3C)OC2C)O[C@H](C)[C@H]1O[C@H]1OC(CO)C(O)C(O)C1O (stereo not given in full),CP191,11.22,"inhibitor, partial curve"

Source: PubChem BioAssay AID504749 (NCATS, 2011).